Library screening results

From ChEMBL document CHEMBL3988442, “University of Dundee, Small-Polar-MMV Screening Library” (2021).

Each number is a percent effect as filed. How 0% and 100% were set is not recorded. Most values in the screen are low, and negative values occur. The compounds are a random part of those screened.

A: 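Whole-cell assay for inhibitors of Mycobacterium tuberculosis growth, labelled Cornell in the record; the read-out is not stated. The concentration is filed as 10 mM, unlikely as a test dose, so the dose is not known. Higher means stronger inhibition (inferred from two other growth screens of the library). Size under these conditions: about 53,000 compounds, about 900 of them at 50% or above in at least one test.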
B: 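Assay on Mycobacterium tuberculosis, filed only as a heat shock assay from Cornell; the read-out is not stated. The concentration is filed as 10 mM, unlikely as a test dose, so the dose is not known. The record gives no direction; compounds that gave an IC50 in retests scored well above the rest, so higher reads as stronger inhibition. Of about 69,000 compounds tested this way, about 930 (1.4%) reached 50% or more in at least one test.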

For COCCC(=O)N1CCN(CCN(C)C)c2ncccc2C1 the result was A: 15.76%; B: -31.07%. Result for O=C(CCS(=O)(=O)C1CCCC1)N1CCC(O)(C(F)(F)F)C1 (configuration not stated) was A: 2.644%; B: -33.65%. With Cc1c(C(C)N)cnn1-c1ccccn1 (configuration not stated) the screen gave A: 5.09%; B: 20.05%. For O=C(O)C(F)(F)F.O=C(O)C(F)(F)F.[H][C@@]12OCCN(CC3CCOCC3)[C@@]1([H])CC[C@H]2OCCN1CCCC1 the result was A: 10.29%; B: -26.83%. Result for Cc1ccsc1C(=O)N1CCn2cnc(COCC3CC3)c2C1 was A: -11.79%; B: 15.98%. Result for N#Cc1cccc(S(=O)(=O)Nc2c(F)cccc2N2CCCC2)c1 was A: 53.51%; B: -9.003%. For COCCc1ncc(CN2CCC3(CCCN(CC4CC4)C3)C2)cn1 (configuration not stated) the result was A: 9.073%; B: -4.557%. O=C(NCCc1coc(-c2ccc(F)cc2)n1)NCC1CCOC1 (configuration not stated) read A: -37.2%; B: -10.85%.

For CC(C)(C)N1CC(C(=O)NCc2cn3cccnc3n2)CC1=O (configuration not stated) the result was A: 16.9%; B: -4.029%. CN(Cc1ccc(C(=O)Nc2sccc2C#N)cc1)Cc1ccno1 gave B: 3.731%. For C=C(C)CN1CCC(NC(=O)NCCc2ccccc2OC)CC1 the result was A: 12.02%; B: -25.94%. With COCC1CN(Cc2ccsc2)Cc2nn(C)cc21.O=C(O)C(F)(F)F (configuration not stated) the screen gave A: -18.05%; B: -12.78%. With Cc1cc(C)n(C2CCCN(C(=O)c3ccc(NC4CC4)nc3)C2)n1 (configuration not stated) the screen gave B: 2.011%. COc1ccc(-n2ncc(C(C)NC3CCSCC3)c2C)cc1 (configuration not stated) read A: 42.15%; B: 2.461%. CCN(CC)C(=O)CN1CCC(c2nc(C)c3c(n2)N(C)CCC3)CC1 gave A: -10.84%; B: -6.646%. With Cc1nnc(C(C)Nc2cccc(COCC(F)(F)C(F)F)c2)o1 (configuration not stated) the screen gave A: 2.563%; B: -17.92%.

[H][C@@]12CCN(Cc3csc(C)n3)C[C@@]1([H])O[C@@H](c1ccncn1)C2 read A: 5.949%; B: 3.034%. CN(CCc1ccncc1)CCc1nccs1 gave A: 0.3235%; B: -5.956%. Cc1cnn(CC2CCCN2C(=O)CCc2ccncc2)c1 (configuration not stated) gave B: 3.779%. With CC(C)n1cc(C(=O)NC2CN3CCC2CC3)c2ccccc21 (configuration not stated) the screen gave A: -0.2209%; B: -12.57%. O=C(c1cc(Cl)ccc1OC1CCN(C2CCCC2)CC1)N1CC(O)C1 read A: 3.091%; B: -8.93%. Cn1ccc2ccc(C(=O)Nc3nc[nH]n3)cc21 read A: -1.635%; B: -17.15%. CN1C(=O)C(C)(C)COc2cc(NS(=O)(=O)c3ccccc3)ccc21 gave A: -6.007%; B: -1.702%. For COc1ccc(C(=O)C2CCCN(c3cc(C#N)ccn3)C2)cc1F (configuration not stated) the result was A: -1.521%; B: -8.938%.

CCc1nc(C2CCCN2Cc2nccn2Cc2ccccc2)no1 (configuration not stated) gave B: 20.06%. Result for COCCN(CCC#N)S(=O)(=O)c1ccc(F)cc1Cl was B: -29.7%. Result for Cc1ccc(S(=O)(=O)NCC(O)c2ccoc2)s1 (configuration not stated) was A: 10.79%; B: 4.429%. Result for Cc1c[nH]c(C2COCCN2C(=O)c2n[nH]c(=O)c3ccccc23)n1 (configuration not stated) was A: 6.811%; B: -20.53%. O=C(NC1CCCCC1)N1CCn2c(nnc2C2CCCN2)C1 (configuration not stated) read B: -4.397%. With [H][C@@]12CCN(C(=O)C3CC(F)(F)C3)C[C@]1(COC)CCO2 the screen gave A: -1.387%; B: -7.945%. With Cc1ccc(NC(=O)Nc2cnc(N3CCN(C)CC3)nc2)cc1 the screen gave A: 7.613%; B: -4.302%. CC(NC(=O)N1CCC(CC(N)=O)CC1)c1csc2ccccc12 (configuration not stated) read B: -5.481%.

Result for CCc1cc(N(C)Cc2ncc[nH]2)nc(N2CCOCC2)n1 was A: 6.215%; B: 8.386%. CCc1noc(CN2CCN(C(=O)N(CC)CC)CC2)n1 gave B: -11.47%. With O=C(c1ccno1)N1C[C@@H](F)[C@@H](OCc2nc3ccccc3o2)C1 the screen gave A: 20.39%; B: -4.623%. Result for CN(Cc1ccccc1)CC(O)Cn1cnc2ccccc2c1=O (configuration not stated) was A: 5.776%; B: -13.3%. O=C(O)C(c1ccc2c(c1)OCCO2)N1CCCC1 (configuration not stated) read A: -6.285%; B: -0.4009%. Result for Cc1ccc(CC(=O)N2CCN(CC(O)c3ccccc3)CC2)cn1 (configuration not stated) was B: 8.066%. Cc1cccnc1CN1CCN(C(=O)c2ccn(C(C)(C)C)c2)CC1 gave A: -24.62%; B: -13.86%. For CCN(CC)CCNC(=O)c1ccc(-n2ccc3ccccc32)s1 the result was A: 14.08%; B: 29.86%.

Cc1oc(C)c(C(=O)NS(=O)(=O)c2ccc3c(c2)OCCCO3)c1C read A: 58.42%; B: -3.368%. Result for [H][C@]12CC[C@]([H])(CN(C(C)=O)C1)N(S(=O)(=O)c1cc(F)ccc1C)C2 was A: 24.18%; B: -2.155%. With CCC(CO)N(Cc1ccc(C(=O)O)cc1)Cc1ccsc1 (configuration not stated) the screen gave B: 0.7102%. With CC(=O)N1CCCN(C(=O)c2cnn(C(C)(C)C)c2C)CC1 the screen gave B: 3.128%. Result for O=C(NCC1CCN(Cc2cc3ccccc3[nH]2)C1)C1CCCCC1 (configuration not stated) was A: 27.08%; B: 14.95%. Result for Cn1ccnc1CN1CCC2(CC(=O)N(c3cncnc3)C2)C1.O=C(O)C(F)(F)F (configuration not stated) was A: 12.19%; B: 8.638%.